{"source": "PubChem BioAssay AID743454 (Peter MacCallum Cancer Centre, 2014)", "screen": "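Genes whose loss kills vorinostat-resistant colon cancer cells under vorinostat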 (primary screen)", "cells": "human HCT116-VR colon cancer cells, selected for vorinostat resistance", "knock-down reagent": "siRNA pool against human genes, 40 nM siRNA pool", "timing": "vorinostat for 24 h, read-out about 72 h after transfection", "treatment": "vorinostat at 2.5 µM final", "read-out": "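Two measures, CellTiter-Fluor viability and luminescent caspase 3/7 activity, each as fold change against same-plate mock wells, mean of duplicates, then screen-wide robust z-score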", "direction": "viability robust z-score: higher = more viable cells than screen typical; caspase robust z-score: higher = more caspase 3/7 activity than screen typical", "rule for the call": "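a knock-down is a hit when classed RV1 or RV2 for lowered viability, or CA1 or CA2 for caspase activation; those lethal without drug were dropped; hits were retested singly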", "note": "The deposit covers about 18,000 reagents; shown is a part drawn at random. Over the whole deposit, 450 (2.5%) were called active. 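Single biological run; no consistent viability z cut-off exists, so the class columns, not z-scores, define the calls.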"}
{"target gene":"A2M (alpha-2-macroglobulin)","viability hit class":"no change","caspase hit class":"no change","viability robust z-score":-0.22,"caspase robust z-score":1.75,"Outcome":"inactive"}
{"target gene":"CFAP54 (cilia and flagella associated protein 54)","viability hit class":"no change","caspase hit class":"no change","viability robust z-score":1.64,"caspase robust z-score":-0.32,"Outcome":"inactive"}
{"target gene":"NCOA7 (nuclear receptor coactivator 7)","viability hit class":"no change","caspase hit class":"no change","viability robust z-score":-0.34,"caspase robust z-score":2.64,"Outcome":"inactive"}
{"target gene":"RAP2B (RAP2B, member of RAS oncogene family)","viability hit class":"no change","caspase hit class":"no change","viability robust z-score":-0.88,"caspase robust z-score":0.44,"Outcome":"inactive"}
{"target gene":"MAS1 (MAS1 proto-oncogene, G protein-coupled receptor)","viability hit class":"no change","caspase hit class":"no change","viability robust z-score":1.01,"caspase robust z-score":1.86,"Outcome":"inactive"}
{"target gene":"SSTR5 (somatostatin receptor 5)","viability hit class":"no change","caspase hit class":"no change","viability robust z-score":-0.32,"caspase robust z-score":-0.17,"Outcome":"inactive"}
{"target gene":"SPTLC3 (serine palmitoyltransferase long chain base subunit 3)","viability hit class":"no change","caspase hit class":"no change","viability robust z-score":0.73,"caspase robust z-score":0.08,"Outcome":"inactive"}
{"target gene":"FOXC1 (forkhead box C1)","viability hit class":"no change","caspase hit class":"no change","viability robust z-score":0.63,"caspase robust z-score":0.2,"Outcome":"inactive"}
{"target gene":"GCC1 (GRIP and coiled-coil domain containing 1)","viability hit class":"no change","caspase hit class":"no change","viability robust z-score":0.52,"caspase robust z-score":-1.15,"Outcome":"inactive"}
{"target gene":"ABHD1 (abhydrolase domain containing 1)","viability hit class":"no change","caspase hit class":"no change","viability robust z-score":0.76,"caspase robust z-score":-0.02,"Outcome":"inactive"}
{"target gene":"L1TD1 (LINE1 type transposase domain containing 1)","viability hit class":"no change","caspase hit class":"no change","viability robust z-score":-0.92,"caspase robust z-score":-1.01,"Outcome":"inactive"}
{"target gene":"H2BC10 (H2B clustered histone 10)","viability hit class":"no change","caspase hit class":"no change","viability robust z-score":0.73,"caspase robust z-score":4.62,"Outcome":"inactive"}
{"target gene":"PCDHB15 (protocadherin beta 15)","viability hit class":"no change","caspase hit class":"no change","viability robust z-score":-0.79,"caspase robust z-score":-1.01,"Outcome":"inactive"}
{"target gene":"IER5 (immediate early response 5)","viability hit class":"no change","caspase hit class":"no change","viability robust z-score":-0.76,"caspase robust z-score":0.48,"Outcome":"inactive"}

Already shown: 2 of the entries above.
{"target gene":"MAS1 (MAS1 proto-oncogene, G protein-coupled receptor)","viability hit class":"no change","caspase hit class":"no change","viability robust z-score":1.01,"caspase robust z-score":1.86,"Outcome":"inactive"}
{"target gene":"SSTR5 (somatostatin receptor 5)","viability hit class":"no change","caspase hit class":"no change","viability robust z-score":-0.32,"caspase robust z-score":-0.17,"Outcome":"inactive"}
